PubChem BioAssay AID1259425, University of Nebraska Medical Center, 2018

Assay: 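Find knockdowns that reproduce the gene expression pattern seen when KSR1 is lost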 (primary screen)
System: HCT116 human colon cancer cells
Reagent: siRNA pool against human genes, 50 nM siRNA
Detection: 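mRNA of six signature genes measured together by branched-DNA assay after 50 nM siRNA pool, blank removed, divided by geometric mean of two housekeeping genes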
Reading the numbers: BNIP3L mRNA: higher = more BNIP3L transcript after knockdown
Here is an unselected part of about 14,000 reagents tested. Further read-outs or replicates are left out here. Not given: the time to read-out.

| gene | PubChem SID | BNIP3L mRNA, set 1 |
| --- | --- | --- |
| CDC34 (cell division cycle 34, ubiquitin conjugating enzyme) | SID363995345 | 0.0637 |
| PDZK1 (PDZ domain containing 1) | SID363993782 | 0.0843 |
| UNC119 (unc-119 lipid binding chaperone) | SID363996078 | 0.0918 |
| SIM2 (SIM bHLH transcription factor 2) | SID363996006 | 0.0878 |
| ABCA6 (ATP binding cassette subfamily A member 6) | SID364004480 | 0.0707 |
| ACTR3 (actin related protein 3) | SID363996607 | 0.111 |
| SF3A1 (splicing factor 3a subunit 1) | SID363996750 | 0.0352 |
| ADGRL3 (adhesion G protein-coupled receptor L3) | SID363999374 | 0.0975 |
| EFNB2 (ephrin B2) | SID363995103 | 0.0598 |
| FOSL1 (FOS like 1, AP-1 transcription factor subunit) | SID363996344 | 0.0507 |
| PAK3 (p21 (RAC1) activated kinase 3) | SID363993747 | 0.0696 |
| FNTB (farnesyltransferase, CAAX box, subunit beta) | SID363993238 | 0.118 |
| ASCL3 (achaete-scute family bHLH transcription factor 3) | SID364001749 | 0.202 |
| LHX5 (LIM homeobox 5) | SID364002418 | 0.0618 |
| BANF1 (barrier to autointegration nuclear assembly factor 1) | SID363994921 | 0.0961 |
| PDPK1 (3-phosphoinositide dependent protein kinase 1) | SID363993781 | 0.116 |

8 of these entries, reformatted:
gene	PubChem SID	BNIP3L mRNA, set 1
ABCA6 (ATP binding cassette subfamily A member 6)	SID364004480	0.0707
ACTR3 (actin related protein 3)	SID363996607	0.111
SF3A1 (splicing factor 3a subunit 1)	SID363996750	0.0352
ADGRL3 (adhesion G protein-coupled receptor L3)	SID363999374	0.0975
EFNB2 (ephrin B2)	SID363995103	0.0598
FOSL1 (FOS like 1, AP-1 transcription factor subunit)	SID363996344	0.0507
PAK3 (p21 (RAC1) activated kinase 3)	SID363993747	0.0696
FNTB (farnesyltransferase, CAAX box, subunit beta)	SID363993238	0.118

The list goes on:
| gene | PubChem SID | BNIP3L mRNA, set 1 |
| --- | --- | --- |
| PRKRIP1 (PRKR interacting protein 1) | SID364002948 | 0.242 |
| TCF3 (transcription factor 3) | SID363994333 | 0.0444 |
| IL9 (interleukin 9) | SID363991908 | 0.0608 |
| CYTH1 (cytohesin 1) | SID363995719 | 0.065 |
| CCDC177 (coiled-coil domain containing 177) | SID364001534 | 0.0812 |
| DNAL4 (dynein axonemal light chain 4) | SID363996625 | 0.484 |
| ADORA2A (adenosine A2a receptor) | SID363991974 | 0.137 |
| THADA (THADA armadillo repeat containing) | SID364002301 | 0.0625 |
| ORAI2 (ORAI calcium release-activated calcium modulator 2) | SID364004209 | 0.114 |
| EPB41L3 (erythrocyte membrane protein band 4.1 like 3) | SID363998219 | 0.0838 |
| IPO4 (importin 4) | SID364002952 | 0.0752 |
| STIL (STIL centriolar assembly protein) | SID363994184 | 0.0899 |
| SPARC (secreted protein acidic and cysteine rich) | SID363994259 | 0.0851 |
| TERF1 (telomeric repeat binding factor 1) | SID363994347 | 0.0735 |
| KLK4 (kallikrein related peptidase 4) | SID363995863 | 0.0666 |
| HSPA1A (heat shock protein family A (Hsp70) member 1A) | SID363996260 | 0.0907 |
| ST7 (suppression of tumorigenicity 7) | SID364001051 | 0.122 |
| ZGPAT (zinc finger CCCH-type and G-patch domain containing) | SID364004036 | 0.173 |
| NT5C (5', 3'-nucleotidase, cytosolic) | SID363998967 | 0.112 |
| IFNW1 (interferon omega 1) | SID363993380 | 0.559 |
| AQR (aquarius intron-binding spliceosomal factor) | SID363999036 | 0.1 |
| RPS10 (ribosomal protein S10) | SID363992311 | 0.0373 |
| RIMKLB (ribosomal modification protein rimK like family member B) | SID364005210 | 0.113 |
| SLC12A6 | SID363996067 | 0.0736 |
| NR4A1 (nuclear receptor subfamily 4 group A member 1) | SID363993340 | 0.146 |
| ZNF253 (zinc finger protein 253) | SID364001974 | 0.0865 |
| EXOSC9 (exosome component 9) | SID363995972 | 0.156 |
| UQCRC1 (ubiquinol-cytochrome c reductase core protein 1) | SID363994477 | 0.0668 |
| C22orf23 (chromosome 22 open reading frame 23) | SID364004054 | 0.0553 |
| PUM1 (pumilio RNA binding family member 1) | SID363999026 | 0.199 |
| SIKE1 (suppressor of IKBKE 1) | SID364003233 | 0.109 |
| IVNS1ABP (influenza virus NS1A binding protein) | SID363997277 | 0.12 |
| NOX5 (NADPH oxidase 5) | SID364002829 | 0.077 |
| HAUS6 (HAUS augmin like complex subunit 6) | SID364000415 | 0.165 |
